Results deposited as PubChem BioAssay AID1053208 (Peter MacCallum Cancer Centre, 2014).

Aim: 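Find knock-downs that sensitise mouse osteosarcoma cells to doxorubicin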 (primary screen)
System: mouse osteosarcoma cells, early-passage culture from an engineered mouse model of fibroblastic bone tumour
Reagent: siRNA pool against mouse genes, 40 nM
Duration: about 120 h (48 h before drug, then 72 h with drug)
Treatment: doxorubicin 100 nM for 72 h, roughly 30-40% inhibitory dose
Detection: 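Viability read as ATP luminescence after 72 h of 100 nM doxorubicin or none, duplicate wells averaged, scaled to non-targeting siRNA, then expressed as robust z-scores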
Direction: viability z-score with doxorubicin: higher = more viable cells under doxorubicin; viability z-score without drug: higher = more viable cells with knock-down alone
Active means: 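Called active if knock-down leaves viability unchanged without drug (z within -2 to 2) but lowers it with doxorubicin (z at or under -2)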
The whole screen tested about 17,000 reagents; below is a part drawn at random. Of all reagents, 788 (4.7%) were called active. 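Calls rest on z-score classes alone; an extra cut-off of viability at most 70% of control was not applied to them.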 Entries without a mark were called inactive. Not all columns of the deposit are shown.

{"target gene": "Akap3", "combined z-score class": "no change with or without drug", "viability z-score with doxorubicin": 0, "viability z-score without drug": -1.69}
{"target gene": "Klf13", "combined z-score class": "no change with or without drug", "viability z-score with doxorubicin": 0.34, "viability z-score without drug": 1.18}
{"target gene": "9130401M01Rik", "combined z-score class": "no change with or without drug", "viability z-score with doxorubicin": 1.01, "viability z-score without drug": 1.35}
{"target gene": "Gatd3a", "combined z-score class": "no change with or without drug", "viability z-score with doxorubicin": 0.22, "viability z-score without drug": -1.18}
{"target gene": "Pbsn", "combined z-score class": "no change with or without drug", "viability z-score with doxorubicin": -0.22, "viability z-score without drug": -1.01}
{"target gene": "Pcbp3", "combined z-score class": "no change with or without drug", "viability z-score with doxorubicin": -0.67, "viability z-score without drug": -0.51}
{"target gene": "Kcna5", "combined z-score class": "no change with or without drug", "viability z-score with doxorubicin": 0, "viability z-score without drug": 0.67}

Laid out differently: entries from further up
target gene	combined z-score class	viability z-score with doxorubicin	viability z-score without drug
Klf13	no change with or without drug	0.34	1.18
9130401M01Rik	no change with or without drug	1.01	1.35

The list goes on.
{"target gene": "Or10al4", "combined z-score class": "no change with or without drug", "viability z-score with doxorubicin": -0.11, "viability z-score without drug": -1.18}
{"target gene": "Sry", "combined z-score class": "no change with or without drug", "viability z-score with doxorubicin": 0.45, "viability z-score without drug": 0.51}
{"target gene": "H2bc18", "combined z-score class": "no change with or without drug", "viability z-score with doxorubicin": -0.22, "viability z-score without drug": -0.17}
{"target gene": "B3galnt1", "combined z-score class": "no change with or without drug", "viability z-score with doxorubicin": 0, "viability z-score without drug": 0.17}
{"target gene": "Chrdl1", "combined z-score class": "no change with or without drug", "viability z-score with doxorubicin": -0.67, "viability z-score without drug": -0.34}
